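Whole-parasite assay of Trypanosoma brucei over 72 hours; the read-out is not stated. Tested at 30 µM. The record gives no direction; compounds that gave an IC50 in retests scored well above the rest, so higher reads as stronger inhibition. Values scatter widely below zero; nearly all retest evidence comes from the higher of the two concentrations used. About 64,000 compounds were tested under these conditions; 1.5% (about 940) showed 50% or more at least once.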

Values are the deposited “Percent Effect”, in %. How 0% and 100% were set is not recorded. Most values in the screen are low, and negative values occur. This is an unselected part of the compounds tested.

Compound | percent effect
CCn1c(N)nc2cc(C(=O)NCCc3ccncc3)cnc21 | -13.07
CN(C)C(C(=O)N1CCC(C#N)CC1)c1ccccc1F (stereo unspecified) | -30.72
Cc1nn(CC(C)C)c(N(C)C)c1CNCCS(C)(=O)=O | -28.34
COC(=O)CCNC(=O)c1cc(Br)c2c(c1)OCCO2 | -7.217
Cc1nc(-c2nc(C(=O)N(C)C)c3ccccn23)cn1C(C)C | -1.511
O=C(NCCCn1cccn1)C1(c2ccc(Br)cc2)CC1 | -78.59
Cc1cc(C2CCCN2Cc2ccc(C(=O)Nc3nccs3)cc2)on1 (stereo unspecified) | -61.7
CN(c1ncc(S(N)(=O)=O)s1)C1CCc2ccccc2C1 (stereo unspecified) | -2.688
CN1CCC(N(C)C[C@H]2CC[C@@H](Cc3cccc(O)c3)O2)CC1 | 12.15
CC(C)Cc1nnc(NC(=O)NC(CCO)c2cccs2)s1 (stereo unspecified) | -9.181
Cc1nnc(CNC(=O)C2CSCCC(=O)N2)o1 (stereo unspecified) | -35.72
CC(C)C(=O)NCC(=O)N1CCC2(CC1)c1ccccc1[C@@H](N)[C@@H]2O | -49.67
O=C1CC(c2ccc(C(=O)O)cc2)c2c(sc3c2CCCC3)N1 (stereo unspecified) | -26.18
CCc1cnc(N)nc1NCc1ccc(OC)cc1OC | -18.42
CCOCCC(=O)N(CCC#N)c1ccc(C)c(C)c1 | -5.327
COCCN(Cc1ccccn1)C(=O)Nc1cccnc1-n1cccn1 | -14.94
COCCC(=O)N1CC2(CCN(c3ccccc3)C2)C1 | -39.28
COC(=O)C1CCCCN1Cc1cccc(C(=O)NCc2ccco2)c1 (stereo unspecified) | -12.07
O=C(O)C(F)(F)F.[H][C@@]12CN(CCO)C[C@@]1([H])N(Cc1cccc(C)c1)C(=O)CO2 | 7.252
O=C1CCCCN1Cc1cccc(NC(=O)N2CCSCC2)c1 | 27.63
Cc1ccc(N2CCc3ncnc(C)c3CC2)nn1 | -12.81
CCOCCCNC(=O)C1(C)CCC(=O)N1c1ccccc1OC (stereo unspecified) | 4.014
O=C(c1ccco1)N1CCn2cc(CN3CCCC3)nc2C1 | -594.9
CCCn1nc(C)c(-c2cncn2CCN(C)C2CCCC2)c1C.Cl | -22.75
Cc1cccc(C2CCCN(C(=O)CN3CCC(C(N)=O)CC3)C2)c1 (stereo unspecified) | -85.37
CCn1cnnc1C1CCN(C(=O)c2ccccc2F)CC1 | 4.228
CC(C)(C)NC(=O)N1CCC(NC(=O)Cc2cccnc2)CC1 | -20.19
Nc1nc2c(c3c1C(=O)NC3=O)CCC2 | -56
CC(C)(C)OC(=O)N1CC(CC(=O)NCc2ccsc2)C1 | -28.45
COCC(NC1CCN(CC(C)C)CC1)c1ccnn1C (stereo unspecified) | -19.73
O=C(O)C(F)(F)F.[H][C@@]12CCN(c3cnccn3)C[C@]1([H])CN(C(=O)c1cncn1C)C2 | -52.47
COCC(=O)N1CCC2(CCC(C(=O)N3CCCC3)O2)CC1 (stereo unspecified) | -8.733
O=C(NC[C@H]1OC[C@@H](NC2CCC(F)(F)CC2)[C@@H]1O)c1ccccc1 | -5.797
CCOc1ccccc1CN1CCc2nc3ccsc3c(=O)n2CC1.Cl | -5.491
CCc1nc(C)sc1CN1C[C@@H](C)[C@@](C)(O)C1 | -17.66
Cc1ccc(CN2CCc3onc(C(=O)N4CCCC4)c3C2)o1.O=C(O)C(F)(F)F | 0.525
Cn1cc(C2CN(C(=O)Cc3coc(-c4ccccc4)n3)CCO2)cn1 (stereo unspecified) | -13.31
CC(C)NC(=O)COc1nc(C(C)C)no1 | -5.931
Cc1cc(CS(=O)(=O)N(C)C(C)c2ccc(Cl)cc2)on1 (stereo unspecified) | 4.379
CCn1nc(C)c2nc(C(C)C)nc(NC)c21 | -16.22
CC(O)CN1CCC(CNCc2c[nH]nc2C(C)(C)C)CC1 (stereo unspecified) | -50.89
Cc1cccc(NC(=O)Nc2c[nH]c(=O)[nH]c2=O)c1C | 5.377
Cc1nc(C(C)N(C)Cc2nc(CCC(C)C)no2)c(C)s1 (stereo unspecified) | -30.71
O=C(NCCCN1CCOCC1)C(OC1CCCC1)c1ccccc1 (stereo unspecified) | -11.61
CCCNc1ncc(-c2cc(C3CC3)nc(N)c2C#N)cn1 | -44.98
Cc1ccc(C(C)NC(=O)Cc2c(C)nc3c(c2C)c(=O)[nH]n3C)o1 (stereo unspecified) | -21.7
Cc1ccc(CN(C(=O)C(C)NC(N)=O)C2CC2)cc1C (stereo unspecified) | -90.22
NC(=O)CC1CC2(CCNCC2)c2cc(F)ccc21.O=C(O)C(F)(F)F (stereo unspecified) | -14.68
Cn1nc(CC(C)(C)C)cc1NC(=O)c1ccc2[nH]nnc2c1 | -147.4
Cc1cc(F)ccc1CN1CCCC2(C1)OCCO2 | 6.216
CCCc1n[nH]c(=O)n1Cc1ccccc1F | -24.66
[H][C@]12CCN(c3ncc(CC)cn3)C[C@@]1([H])OCCN(C(=O)c1ccco1)C2 | -40.64
CN(C)[C@H]1C[C@@H](Cc2cc(-c3ccc(F)cc3)on2)C1(C)C | 8.353
Cc1nc2c(c(=O)[nH]1)CCN(Cc1ccc3c(c1)CCCN3C)C2 | -0.6184
O=C(c1scc2c1OCCO2)N1CCOC(Cc2ccc(F)cc2)C1 (stereo unspecified) | 16.76
CCC1=NC(SCC(=O)c2ccc(C)cc2)c2cc(CC)sc2N1 (stereo unspecified) | -26.6
COc1ccc(CNCCc2cccc(C(N)=O)c2)cc1C | -80.02
CNS(=O)(=O)c1cccc(C(C)NCc2cccc(O)c2)c1 (stereo unspecified) | -35.3
Cc1csc(CN2CCC[C@]3(C[C@@H](Oc4ccccn4)CO3)C2)n1.O=C(O)C(F)(F)F.O=C(O)C(F)(F)F | -50.87
[H][C@]12CN(c3cnccn3)C[C@@]1(C(=O)O)CN(C1CCOCC1)C2 | 22.08
Cc1ccccc1C(C(=O)O)N(C)CC1CCOCC1 (stereo unspecified) | 15.08
CNc1nc(C)c(-c2nc(-c3c(C)ncc4c3CCNC4)no2)s1 | 16.78
CN(Cc1cccnc1)CC1CN(C(N)=O)Cc2nccn2C1 (stereo unspecified) | -14.11
CCNC(=O)CN1CCN(c2ccnc3c(F)ccc(F)c23)CC1 | 3.786
CC(C)(CO)CCCNC(=O)NC1(c2ccccc2F)CC1 | -33.05
CN1CCOC2(CCCN(C(=O)C3CCCCC3)C2)C1.O=C(O)C(F)(F)F (stereo unspecified) | -19.87
O=C(O)C(F)(F)F.[H][C@@]12CN(Cc3ccccn3)C[C@]1([H])CN(C(=O)c1cccc(F)c1)C2 | -11.33
C=C(C)CN(CC)S(=O)(=O)c1ccccc1C#N | -47.84
COCC(=O)N1CCC2(CC(=O)N(c3cccc(F)c3)C2)C1 (stereo unspecified) | -70.66
Cc1cnn(CC2CN(c3ccc(C#N)cn3)CCO2)c1 (stereo unspecified) | 1.609
COc1ccccc1CC1CCCN(CCN2CCOC2=O)C1 (stereo unspecified) | 99.68
CCCC(=O)NCC(=O)Nc1cc(F)ccc1SCC(F)F | -31.15
Cc1noc(-c2ccc(N3CCCC(C(=O)c4nccn4C)C3)nc2)n1 (stereo unspecified) | -23.45
CCNc1ncc2c(n1)CN(c1ccc(Cl)cc1)C2=O | -13.55
COc1cccc2c1ccn2CCC(=O)N1CCC(C(=O)O)CC1 | -13.93
O=C(CNC(=O)c1ccccc1I)NCc1ccccc1F | -55.14
COc1c(CNCCNC(=O)Cc2ccc(F)cc2)c(C)nn1C | -40.44
Cc1noc(C)c1C(=O)NCC(c1ccsc1)N(C)C (stereo unspecified) | -3.853
Cc1noc(C)c1S(=O)(=O)N1CCC(Oc2cccnn2)CC1 | -9.321
Cc1ccc(C)c(OCCN(C)C(=O)C2CCCN2C(N)=O)c1C (stereo unspecified) | -56.75
CN(C)c1ccc(C(=O)N2CCCC(n3cccn3)C2)cn1 (stereo unspecified) | -20.71

The first 10 entries again:

- CCn1c(N)nc2cc(C(=O)NCCc3ccncc3)cnc21 | -13.07%
- CN(C)C(C(=O)N1CCC(C#N)CC1)c1ccccc1F (stereo unspecified) | -30.72%
- Cc1nn(CC(C)C)c(N(C)C)c1CNCCS(C)(=O)=O | -28.34%
- COC(=O)CCNC(=O)c1cc(Br)c2c(c1)OCCO2 | -7.217%
- Cc1nc(-c2nc(C(=O)N(C)C)c3ccccn23)cn1C(C)C | -1.511%
- O=C(NCCCn1cccn1)C1(c2ccc(Br)cc2)CC1 | -78.59%
- Cc1cc(C2CCCN2Cc2ccc(C(=O)Nc3nccs3)cc2)on1 (stereo unspecified) | -61.7%
- CN(c1ncc(S(N)(=O)=O)s1)C1CCc2ccccc2C1 (stereo unspecified) | -2.688%
- CN1CCC(N(C)C[C@H]2CC[C@@H](Cc3cccc(O)c3)O2)CC1 | 12.15%
- CC(C)Cc1nnc(NC(=O)NC(CCO)c2cccs2)s1 (stereo unspecified) | -9.181%

Data taken from ChEMBL document CHEMBL3988442, “University of Dundee, Small-Polar-MMV Screening Library” (2021).